From publication doi:10.1101/2022.04.14.487897 (bioRxiv, 2022)
No constants are given. Whether binding was seen depends on the method and setting.

Biological target: human p66Shc C59S (human) (UniProt P29353)
Test: AUC

B1: human p66Shc C59S (protein, UniProt P29353-1 1-583)
chain: MDLLPPKPKYNPLRNESLSSLEEGASGSTPPEELPSPSASSLGPILPPLPGDDSPTTLSSFFPRMSNLRLANPAGGRPGSKGEPGRAADDGEGIVGAAMPDSGPLPLLQDMNKLSGGGGRRTRVEGGQLGGEEWTRHGSFVNKPTRGWLHPNDKVMGPGVSYLVRYMGCVEVLQSMRALDFNTRTQVTREAISLVCEAVPGAKGATRRRKPCSRPLSSILGRSNLKFAGMPITLTVSTSSLNLMAADCKQIIANHHMQSISFASGGDPDTAEYVAYVAKDPVNQRACHILECPEGLAQDVISTIGQAFELRFKQYLRNPPKLVTPHDRMAGFDGSAWDEEEEEPPDHQYYNDFPGKEPPLGGVVDMRLREGAAPGAARPTAPNAQTPSHLGATLPVGQPVGGDPEVRKQMPPPPPCPGRELFDDPSYVNVQNLDKARQAVGGAGPPNPAINGSAPRDLFDMKPFEDALRVPPPPQSVSMAEQLRGEPWFHGKLSRREAEALLQLNGDFLVRESTTTPGQYVLTGLQSGQPKHLLLVDPEGVVRTKDHRFESVSHLISYHMDNHLPIISAGSELCLQQPVERKL
- binding: no binding (tested: 8.7 μM)
